From PubChem BioAssay AID1347075 (National Center for Advancing Translational Sciences (NCATS), 2019)
Several values for one entry are separate records, joined by “and”; a condition that tells them apart may be missing. Equal entries are not always repeated. Hit rate of the full screen: of about 400,000 compounds, about 5,500 (1.4%) were called active. Inconclusive means that the source gave no clear call. Such entries were picked first, then a sample of the others. Calls come from the whole dose curve; as a rule, active = well fitted cell-killing curve with a large enough effect; inconclusive = small, poorly fitted or top-dose-only effect, or effect the other way; inactive = flat fitted curve, though single readings scatter. Where the call is inconclusive, the potency comes from a doubtful curve fit.

Assay: qHTS assay for MDR1-selective chemotherapeutics: Primary screen using the parental adenocarcinoma cell KB-3-1; note: nearly all actives have a fitted effect of over 60% in size
Conditions: KB-3-1 viability, CellTiter-Glo ATP luminescence, 72 h; activity change, negative = cytotoxic: at 46.1 µM (top of the series)
Summary of the method: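 Cytotoxicity in the drug-sensitive parental line KB-3-1 was scored as loss of CellTiter-Glo luminescence following 72 h incubation with compound. Values come from curve fitting of normalized concentration-response data.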
% is set by controls: 0 for no effect and ±100 for the full control effect; potency is the fitted concentration of half-maximal effect.

| Compound | activity change, negative = cytotoxic | Potency |
| --- | --- | --- |
| O=C(Nc1ccccc1F)N(CCCN1CCOCC1)Cc1cc2cc3c(cc2[nH]c1=O)OCCO3 | inactive: -2.93% | – |
| COc1ccc(CC(=O)Nc2nc(-c3cccc([N+](=O)[O-])c3)cs2)cc1 | – | inconclusive: 1.46 µM [rising, partial curve, poor fit] |
| COc1ccc(C(C#N)CC(=O)c2ccc(OC)c(OCc3ccccc3)c2)cc1OC (stereo not drawn) | – | inconclusive: 23.1 µM [cytotoxic, single point] |
| O=[N+]([O-])c1ccccc1/C=C/C=N/Nc1ccc(S(=O)(=O)Nc2ccc(Cl)cc2)cc1[N+](=O)[O-] | – | inconclusive: 29.1 µM [cytotoxic, single point] |
| COc1ccc(-c2ccc3c(c2)C2CC3CCN2C(=O)C(C)(C)C)cc1 (stereo not drawn) | – | inconclusive: 14.6 µM [cytotoxic, single point] |
| COc1cc(CNC(=O)Nc2nc(C(N)c3ccccc3)cs2)cc(OC)c1OC (stereo not drawn) | inconclusive: -16% | – |
| Cc1cccc(NC(=O)CCn2cnc3ccccc3c2=O)c1 | – | inconclusive: 18.4 µM [rising, single point] |
| O=C(CC1N=C2c3ccccc3N=C(SCc3ccccc3Cl)N2C1=O)NCCc1ccccc1 (stereo not drawn) | – | inconclusive: 29.1 µM [cytotoxic, single point] |
| Cc1cc(Nc2cccc(Cl)c2)nc2ccc(NC(=O)c3cncc(Br)c3)cc12 | – | inconclusive: 29.1 µM [cytotoxic, single point] |
| CN(C)c1c(Cl)cc(/C=C/c2ccnc3ccccc23)cc1Br | – | active: 18.4 µM |
| Clc1cccc(CSc2nnc(-c3c[nH]c4ccccc34)o2)c1 | inactive: -27.2% | – |
| CC(=O)Nc1ccc(-c2ccnc3c2CC(C)(C(=O)NCC2CCOCC2)O3)cc1 (stereo not drawn) | – | inconclusive: 13 µM [cytotoxic, partial curve] |
| Cc1c(C(=O)N(CCO)Cc2ccccc2)oc2c(F)cccc12 | inactive: 2.49% | – |
| O=C(CCC1CCCN(Cc2cccc3c2OCO3)C1)NCc1ccc(F)c(F)c1 (stereo not drawn) | inactive: -13.7% | – |
| CCCCC(=O)Nc1nnc(SCC(=O)NC2CCCC2)s1 | inactive: 0.0116% | – |
| CCN(c1ccc(OC)cc1)S(=O)(=O)N1CCCC(C(=O)NCc2ccc(OC(C)C)cc2)C1 (stereo not drawn) | inactive: -14.2% | – |
| CCCc1c(-c2cccc(Cl)c2)ncn1CCc1ccccc1OC | – | inconclusive: 16.4 µM [cytotoxic, single point] |
| Cc1ccc2c(=O)cc(C(=O)Nc3sc4c(c3C(=O)NCC3CCCO3)CCC4)oc2c1 (stereo not drawn) | inactive: 0% | – |
| Brc1ccc(-c2nnc(-c3ccccc3)o2)o1 | – | inconclusive: 29.1 µM [cytotoxic, single point] |
| COc1ccc(-c2nc3ccccc3s2)cc1NC(=O)c1ccccc1F | – | inconclusive: 29.1 µM [cytotoxic, single point] |
| C=CCN1N=C(/C=C/c2ccc(C)cc2)CCC1=O | – | inconclusive: 18.4 µM [cytotoxic, single point] |
| Cc1nn2c(SCC(=O)c3cccs3)cc(C(C)(C)C)nc2c1-c1ccccc1 | – | inconclusive: 29.1 µM [cytotoxic, single point] |
| O=C(Nc1ccc(OC(F)(F)F)cc1)N1CCc2nc(NCc3cccc(Oc4ccccc4)c3)ncc2C1 | – | inconclusive: 20.6 µM [cytotoxic, partial curve, poor fit] |

Random excerpt: 3 entries already listed

| Compound | activity change, negative = cytotoxic | Potency |
| --- | --- | --- |
| Cc1cccc(NC(=O)CCn2cnc3ccccc3c2=O)c1 | – | inconclusive: 18.4 µM [rising, single point] |
| O=C(CCC1CCCN(Cc2cccc3c2OCO3)C1)NCc1ccc(F)c(F)c1 (stereo not drawn) | inactive: -13.7% | – |
| COc1ccc(C(C#N)CC(=O)c2ccc(OC)c(OCc3ccccc3)c2)cc1OC (stereo not drawn) | – | inconclusive: 23.1 µM [cytotoxic, single point] |

More entries.

| Compound | activity change, negative = cytotoxic | Potency |
| --- | --- | --- |
| O=C(CC(=O)N/N=C/c1c(Cl)cccc1Cl)NCc1cccnc1 | inactive: -9.91% | – |
| CC1CCCC(C)N1S(=O)(=O)c1ccc(NC(=O)CNC2CCCC2)cc1 (stereo not drawn) | inactive: -1.64% | – |
| CCOc1ccc2c(c1)/C(=C(\C(Cl)=C(Cl)Cl)[N+](=O)[O-])N2 | – | inconclusive: 0.0082 µM [rising, full curve] |
| CCC(=O)N1CCc2cc(Br)cc(S(=O)(=O)CCC(=O)N3CCN(c4cccc(C)c4)C(C)C3)c21 (stereo not drawn) | inactive: -4.13% | – |
| NC(CCc1ccccc1)c1csc(NC(=O)Nc2cccc(C(F)(F)F)c2)n1 (stereo not drawn) | – | inconclusive: 29.1 µM [cytotoxic, single point] |
| O=C(Nc1cccc(S(=O)(=O)NC2=NCCC2)c1)c1ccc(=O)[nH]c1 | – | inconclusive: 0.0058 µM [rising, full curve] |
| CC(=O)c1c(C)[nH]c(C(=O)OCC(=O)NCc2ccc(Cl)cc2)c1C | – | inconclusive: 18.4 µM [cytotoxic, single point] |
| Cc1ccc(S(=O)(=O)c2nnn(-c3ccc(F)c(Cl)c3)c2N)cc1 | inactive: -5.18% | – |
| CCC(=O)Nc1ccc(C(=O)Cn2ncc(Cl)c(Cl)c2=O)cc1 | – | inconclusive: 29.1 µM [cytotoxic, single point] |
| O=C1C=C(c2ccnc3cc(Cl)ccc23)C[C@@H](c2ccc3c(c2)OCO3)C1 | – | active: 23.1 µM |
| O=C(COc1cc2oc(=O)c3c(c2cc1Cl)CCC3)NCc1ccncc1 | – | inconclusive: 10.3 µM [rising, partial curve] |
| O=C(Cn1cnc2c(NCc3ccccc3)ncnc21)NCc1ccccc1 | – | active: 2.91 µM |
| CN(CCNC(=O)c1cc2c(=O)n(C)c3ccccc3c2n1C)Cc1ccccc1 | – | inconclusive: 29.1 µM [cytotoxic, single point] |
| CCCCc1[nH]c(=O)c(C#N)c2c1CCCC2 | inactive: -0.0074% | – |
| O=C(Nc1c[nH]c(=O)[nH]c1=O)c1ccccc1Cl | – | inconclusive: 23.1 µM [cytotoxic, partial curve, poor fit] |
| C=CCOc1ccc(C(=O)O)cc1Cl | – | inconclusive: 20.6 µM [rising, partial curve] |
| O=C(Nc1nc2c(F)cc(F)cc2s1)c1ccccn1 | – | inconclusive: 5.8 µM [cytotoxic, full curve] |
| COC(=O)[C@@]12CCCCN1[C@H](c1ccc(-c3ccccc3)cc1)[C@H]1C(=O)N(C)C(=O)[C@H]12 | – | inconclusive: 25.9 µM [cytotoxic, single point] |
| C=CCNC(=O)c1onc(CSc2nc3ccccc3[nH]2)c1C(=O)NCC=C | inconclusive: 37% | – |
| O=C(Cc1cc(C(=O)O)c2ccccc2n1)Nc1ccccc1 | – | inconclusive: 29.1 µM [cytotoxic, single point] |
| Cc1cc(C)nc(Sc2ncnc3sc4c(c23)CCC4)n1 | – | inconclusive: 23.1 µM [cytotoxic, single point] |
| O=C1C(Cc2ccccc2)Nc2ncnc(N3CCCCC3)c2N1Cc1ccc(Br)cc1 (stereo not drawn) | – | inconclusive: 29.1 µM [cytotoxic, single point] |
| COc1ccc(C2=NNC(c3cccnc3)=Nc3ccc(OC)cc32)cc1 | – | inconclusive: 29.1 µM [cytotoxic, single point] |

| Compound | activity change, negative = cytotoxic | Potency |
| --- | --- | --- |
| Cc1cc(NC(=O)c2ccc(Br)cc2)nc(C)n1 | inactive: -5.15% | – |
| COc1ccc(C(=O)c2cnc3ccccc3c2-c2ccccc2)cc1 | – | active: 23.1 µM |
| CCOc1ccc(NC(=O)Cn2c(=O)n(CCCCCC(=O)NCc3ccccc3)c(=O)c3sccc32)cc1 | – | inconclusive: 25.9 µM [cytotoxic, partial curve, poor fit] |
| Cc1ccc(N(C(=O)CNC(=O)c2ccco2)C(C(=O)NCC2CCCO2)c2ccccc2)cc1C (stereo not drawn) | – | inconclusive: 0.0058 µM [cytotoxic, full curve] |
| CCCCCCCn1c(=N)n(CC(O)c2ccco2)c2ccccc21 (stereo not drawn) | inactive: -27.6% | – |
| Cc1ccc2c(CNCc3ccc(C)o3)c(C(=O)O)n(Cc3ccccc3C)c2c1 | inactive: 2.07% | – |
| CC(C)CC1C(=O)N(Cc2cn(CCC3OCCO3)nn2)CCS(=O)(=O)N1Cc1ccc(-c2cccc(N(C)C)c2)cc1 (stereo not drawn) | inactive: -26.6% | – |
| Cc1ccnc(NC(=O)c2ccc(C(=O)c3ccccc3)cc2)c1 | – | inconclusive: 25.9 µM [cytotoxic, single point] |
| CCOC(=O)C1CCN(Cc2ccc(O)c3ncccc23)CC1 | – | active: 23.1 µM |
| CC(C)(C)S(=O)N1Cc2cc(C(=O)NCCCN3CCOCC3)nc(-c3cccc(-c4cc5ccccc5o4)c3)c2[C@@H]1CCO (stereo partly drawn) | – | inconclusive: 29.1 µM [cytotoxic, single point] |
| N#C/C(=C(/O)COC(=O)CSc1ccc2ccccc2c1)c1nc2ccccc2[nH]1 | – | inconclusive: 23.1 µM [cytotoxic, single point] |
| Cc1cccc(NC(=O)c2nc[nH]c2C(=O)NCCCCCNC(=O)OC(C)(C)C)c1 | – | inconclusive: 20.6 µM [cytotoxic, single point] |
| Cc1ccc(CNC(=O)C2CCN(S(=O)(=O)c3ccc(Br)s3)CC2)cc1 | inactive: -0.975% | – |
| COc1cccc(-c2cccc(NC(=O)C3CCN(CCCn4cccn4)CC3)c2)c1 | inactive: -0.325% | – |
| CC1CCCC(NC(=O)NC(=O)COC(=O)C2=NN(c3ccccc3)C(=O)CC2)C1C (stereo not drawn) | inactive: -20.1% | – |
| COCC(=O)N1CCc2ccc(NC(=O)c3ccc(C(F)(F)F)cc3)cc2C1 | – | inconclusive: 32.6 µM [cytotoxic, single point] |
| COc1ccc(CNC(=O)c2cc3cc(OC)ccc3oc2=O)cc1 | – | active: 14.6 µM and inconclusive: 29.1 µM [cytotoxic, single point] |
| Cc1cc(C)c2c(CC(=O)Nc3ccc(S(=O)(=O)Nc4nc(C)cc(C)n4)cc3)coc2c1 | inactive: 4.92% | – |
| Cc1nn(Cc2ccc(Cl)cc2Cl)c(C)c1NC(=O)c1ccc(COc2cc(Cl)ccc2Cl)o1 | – | inconclusive: 16.4 µM [cytotoxic, single point] |
| CC(=O)N1CCCc2cc(S(=O)(=O)N3CCCC(C(=O)N4CCN(c5ccccc5)CC4)C3)ccc21 (stereo not drawn) | – | inconclusive: 18.4 µM [cytotoxic, single point] |
| COC(=O)Nc1ccc(S(=O)(=O)N2CCCC(C(=O)N3CCC(C)CC3)C2)cc1 (stereo not drawn) | – | inconclusive: 0.461 µM [cytotoxic, full curve, poor fit] |
| O=C(CCl)N(C1CCCC1)C1CCS(=O)(=O)C1 (stereo not drawn) | – | inconclusive: 23.1 µM [cytotoxic, single point] |
